This experiment deals with c-myc (UniProt P01106). Nature of the experiment: co-IP; HeLa cells transiently transfected with V5cdr2 and c-myc, arrested in G1/S or G2/M; extracts immunoprecipitated with anti-c-myc (C3956) or control anti-HA, blotted with anti-V5.

By UniProt entry, the sequences of proteins in these tests, tags left out.
UniProt P01106: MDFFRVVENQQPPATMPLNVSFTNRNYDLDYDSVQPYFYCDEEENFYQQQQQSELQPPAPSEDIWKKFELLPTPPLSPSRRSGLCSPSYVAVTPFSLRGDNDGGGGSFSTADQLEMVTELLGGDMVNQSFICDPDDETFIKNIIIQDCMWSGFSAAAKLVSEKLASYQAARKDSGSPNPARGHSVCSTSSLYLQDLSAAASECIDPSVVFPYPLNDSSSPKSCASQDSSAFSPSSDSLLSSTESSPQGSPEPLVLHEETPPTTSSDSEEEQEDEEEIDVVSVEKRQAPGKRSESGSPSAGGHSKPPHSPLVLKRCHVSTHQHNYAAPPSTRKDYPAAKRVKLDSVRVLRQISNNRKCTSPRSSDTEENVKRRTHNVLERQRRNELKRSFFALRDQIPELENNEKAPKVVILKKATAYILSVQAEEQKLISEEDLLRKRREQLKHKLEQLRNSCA

No constants are given. Whether binding was seen depends on the method and setting. In cells and extracts the contact can be indirect. Some binding calls cover weakened binding; strength is not graded here. Tags and fused reporters may be left off the sequences shown.

B1: V5cdr2 (V5-tagged cerebellar-degeneration-related antigen-2) (protein, UniProt Q01850 1-454)
chain: MLAENLVEEFEMKEDEPWYDHQDLQQDLQLAAELGKTLLDRNTELEDSVQQMYTTNQEQLQEIEYLTKQVELLRQMNEQHAKVYEQLDVTARELEETNQKLVADSKASQQKILSLTETIECLQTNIDHLQSQVEELKSSGQGRRSPGKCDQEKPAPSFACLKELYDLRQHFVYDHVFAEKITSLQGQPSPDEEENEHLKKTVTMLQAQLSLERQKRVTMEEEYGLVLKENSELEQQLGATGAYRARALELEAEVAEMRQMLQSEHPFVNGVEKLVPDSLYVPFKEPSQSLLEEMFLTVPESHRKPLKRSSSETILSSLAGSDIVKGHEETCIRRAKAVKQRGISLLHEVDTQYSALKVKYEELLKKCQEEQDSLSHKAVQTSRAAAKDLTGVNAQSEPVASGWELASVNPEPVSSPTTPPEYKALFKEIFSCIKKTKQEIDEQRTKYRSLSSHS
For the molecule B1, the binding result is on record as “binds”.
